{"source": "PubChem BioAssay AID652259 (Drosophila RNAi Screening Center, 2013)", "screen": "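Genome-wide hunt for genes that control Wingless pathway activity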 (primary screen)", "cells": "Drosophila clone 8 imaginal disc epithelial cells", "reagent": "long dsRNA against Drosophila genes", "challenge": "pathway stimulated by co-transfected Wingless expression plasmid", "detection": "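Firefly luciferase from a tcf-site Wingless reporter, measured alongside co-transfected Renilla luciferase that tracks transfection; pathway stimulated by a Wingless plasmid; the firefly-to-Renilla ratio is not deposited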", "direction": "firefly reporter light: higher = more Wg reporter light, before normalisation; Renilla control light: higher = more transfected or surviving cells", "active means": "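Strong candidates differ from their plate mean by at least two out of four per-plate statistical tests; weak candidates meet just one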", "calls": "active = candidate regulator (raises or lowers reporter); inactive = not a candidate", "note": "In all, the deposit lists about 22,000 reagents; below is an unselected part of those with a known target gene and a result. Over the whole deposit, 233 (1.1%) got an active call. 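Light values are raw, unnormalised plate reads; the ratio scores behind the reporter calls were not deposited.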 Reagents against one gene are numbered here. A plus sign joins genes that one reagent is predicted to hit. Not given: the amount of reagent, the time to read-out, the dose of the treatment."}
{"gene": "CG9825 (GeneID 37624)", "reagent": 1, "firefly reporter light, replicate 1": 2128, "firefly reporter light, replicate 2": 6400, "Renilla control light, replicate 1": 684, "Renilla control light, replicate 2": 2541, "outcome": "inactive"}
{"gene": "Mical (GeneID 41225)", "reagent": 1, "firefly reporter light, replicate 1": 9009, "Renilla control light, replicate 1": 1579, "outcome": "inactive"}
{"gene": "Mical (GeneID 41225)", "reagent": 2, "firefly reporter light, replicate 1": 13716, "Renilla control light, replicate 1": 2547, "outcome": "inactive"}
{"gene": "Mical (GeneID 41225)", "reagent": 3, "firefly reporter light, replicate 1": 11892, "Renilla control light, replicate 1": 2234, "outcome": "inactive"}
{"gene": "Mical (GeneID 41225)", "reagent": 4, "firefly reporter light, replicate 1": 10243, "Renilla control light, replicate 1": 1924, "outcome": "inactive"}
{"gene": "CG12684 (GeneID 31390)", "reagent": 1, "firefly reporter light, replicate 1": 12044, "Renilla control light, replicate 1": 6555, "outcome": "inactive"}
{"gene": "cv-2 (GeneID 45280)", "reagent": 1, "firefly reporter light, replicate 1": 18736, "Renilla control light, replicate 1": 9545, "outcome": "inactive"}
{"gene": "cv-2 (GeneID 45280)", "reagent": 2, "firefly reporter light, replicate 1": 2528, "firefly reporter light, replicate 2": 5124, "Renilla control light, replicate 1": 951, "Renilla control light, replicate 2": 1680, "outcome": "inactive"}
{"gene": "CG7044 (GeneID 42497)", "reagent": 1, "firefly reporter light, replicate 1": 14651, "Renilla control light, replicate 1": 3956, "outcome": "inactive"}
{"gene": "CG13693 (GeneID 33187)", "reagent": 1, "firefly reporter light, replicate 1": 3341, "firefly reporter light, replicate 2": 7352, "Renilla control light, replicate 1": 1586, "Renilla control light, replicate 2": 3717, "outcome": "inactive"}
{"gene": "CG12935 + Nop10", "reagent": 1, "firefly reporter light, replicate 1": 3024, "firefly reporter light, replicate 2": 9560, "Renilla control light, replicate 1": 860, "Renilla control light, replicate 2": 3632, "outcome": "inactive"}
{"gene": "PNKP (GeneID 40994)", "reagent": 1, "firefly reporter light, replicate 1": 12554, "Renilla control light, replicate 1": 3537, "outcome": "inactive"}
{"gene": "moody (GeneID 31168)", "reagent": 1, "firefly reporter light, replicate 1": 18072, "Renilla control light, replicate 1": 16000, "outcome": "inactive"}
{"gene": "CG1602 (GeneID 35684)", "reagent": 1, "firefly reporter light, replicate 1": 4404, "firefly reporter light, replicate 2": 5798, "Renilla control light, replicate 1": 853, "Renilla control light, replicate 2": 2272, "outcome": "inactive"}
{"gene": "CG14691 (GeneID 41287)", "reagent": 1, "firefly reporter light, replicate 1": 17298, "Renilla control light, replicate 1": 4930, "outcome": "inactive"}
{"gene": "Mink (GeneID 42982)", "reagent": 1, "firefly reporter light, replicate 1": 1668, "firefly reporter light, replicate 2": 5757, "Renilla control light, replicate 1": 874, "Renilla control light, replicate 2": 1063, "outcome": "inactive"}
{"gene": "Nepl9 (GeneID 35020)", "reagent": 1, "firefly reporter light, replicate 1": 3618, "firefly reporter light, replicate 2": 7443, "Renilla control light, replicate 1": 1185, "Renilla control light, replicate 2": 4105, "outcome": "inactive"}
{"gene": "CG4956 (GeneID 43114)", "reagent": 1, "firefly reporter light, replicate 1": 15514, "Renilla control light, replicate 1": 16205, "outcome": "inactive"}
{"gene": "CG14410 (GeneID 32409)", "reagent": 1, "firefly reporter light, replicate 1": 20167, "Renilla control light, replicate 1": 10321, "outcome": "inactive"}
{"gene": "CG32284 (GeneID 317956)", "reagent": 1, "firefly reporter light, replicate 1": 4041, "Renilla control light, replicate 1": 2389, "outcome": "inactive"}
{"gene": "noi (GeneID 40678)", "reagent": 1, "firefly reporter light, replicate 1": 6264, "Renilla control light, replicate 1": 1968, "outcome": "inactive"}
{"gene": "Prosalpha1R + Prosalpha1", "reagent": 1, "firefly reporter light, replicate 1": 7273, "Renilla control light, replicate 1": 2451, "outcome": "inactive"}
{"gene": "CG4815 (GeneID 43360)", "reagent": 1, "firefly reporter light, replicate 1": 6071, "Renilla control light, replicate 1": 3064, "outcome": "inactive"}
{"gene": "CG6441 (GeneID 34029)", "reagent": 1, "firefly reporter light, replicate 1": 1240, "firefly reporter light, replicate 2": 4857, "Renilla control light, replicate 1": 507, "Renilla control light, replicate 2": 1608, "outcome": "inactive"}
{"gene": "Sin3A (GeneID 36382)", "reagent": 1, "firefly reporter light, replicate 1": 9667, "Renilla control light, replicate 1": 1851, "outcome": "inactive"}

3 neighbouring reagents already listed, quoted:
{"gene": "CG12935 + Nop10", "reagent": 1, "firefly reporter light, replicate 1": 3024, "firefly reporter light, replicate 2": 9560, "Renilla control light, replicate 1": 860, "Renilla control light, replicate 2": 3632, "outcome": "inactive"}
{"gene": "PNKP (GeneID 40994)", "reagent": 1, "firefly reporter light, replicate 1": 12554, "Renilla control light, replicate 1": 3537, "outcome": "inactive"}
{"gene": "moody (GeneID 31168)", "reagent": 1, "firefly reporter light, replicate 1": 18072, "Renilla control light, replicate 1": 16000, "outcome": "inactive"}
